Data reported in publication PMC8151781, “Ca^2+ Regulates ERp57-Calnexin Complex Formation” (Molecules, 2021).
No constants are given. Whether binding was seen depends on the method and setting.

Target: luminal domain of human calnexin (residues 21-481) (human) (UniProt P27824)
Assay: native gel or EMSA; clear-native PAGE (8% gel) and two-dimensional PAGE; 2 μM ERp57 with 2 μM CNX, 50 mM Tris/HCl pH 7.5, 0.05% CBB G-250, 10% glycerol, in the absence or presence of 1 mM CaCl2, 1 h at 30 °C then 15 min at 4 °C; both purified

binding: no binding (tested: 2 μM)
B1: luminal domain of human calnexin (residues 21-481) (domain or fragment, UniProt P27824 21-481, looked up)
chain: HDGHDDDVIDIEDDLDDVIEEVEDSKPDTTAPPSSPKVTYKAPVPTGEVYFADSFDRGTLSGWILSKAKKDDTDDEIAKYDGKWEVEEMKESKLPGDKGLVLMSRAKHHAISAKLNKPFLFDTKPLIVQYEVNFQNGIECGGAYVKLLSKTPELNLDQFHDKTPYTIMFGPDKCGEDYKLHFIFRHKNPKTGIYEEKHAKRPDADLKTYFTDKKTHLYTLILNPDNSFEILVDQSVVNSGNLLNDMTPPVNPSREIEDPEDRKPEDWDERPKIPDPEAVKPDDWDEDAPAKIPDEEATKPEGWLDDEPEYVPDPDAEKPEDWDEDMDGEWEAPQIANPRCESAPGCGVWQRPVIDNPNYKGKWKPPMIDNPSYQGIWKPRKIPNPDFFEDLEPFRMTPFSAIGLELWSMTSDIFFDNFIICADRRIVDDWANDGWGLKKAADGAAEPGVVGQMIEAAEERP
notes: calnexin (CNX), human, luminal domain, residues 21-481; pET15b construct; the N-terminal His tag was removed from the plasmid and a His tag added at the C-terminus; also called CNX; ER-luminal domain of CNX
